Primary screen of a compound library

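Whole-parasite assay of Trypanosoma brucei over 72 hours; the read-out is not stated. Concentration: 30 µM. Direction is inferred from retests: higher values go with stronger inhibition. Values scatter widely below zero; nearly all retest evidence comes from the higher of the two concentrations used. Size under these conditions: about 64,000 compounds, about 940 of them at 50% or above in at least one test.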

The filed quantity is “Percent Effect” (%).
The controls that fix the scale are not given in the record; negative values are as filed.
The compounds are a random part of those screened.

| # | Compound | percent effect |
|---|---|---|
| 1 | `CSc1ccc(CNC(=O)C2CC(=O)N(C(C)(C)C)C2)cc1` (centres unmarked) | 0.6574% |
| 2 | `CCS(=O)(=O)N1CCC2(CC1)c1ncc(-c3cccnc3)n1CCN2C` | -68.56% |
| 3 | `CCC(C)NC(=O)CS(=O)(=O)Cc1cc(Cl)ccc1OC` (centres unmarked) | -35.43% |
| 4 | `CCn1nnc(NCc2ccc(-c3ccc(Br)cc3)o2)n1` | 15.54% |
| 5 | `Cn1cc(N2CC3(CCN(Cc4cccnc4)CC3)OCC2=O)cn1.O=C(O)C(F)(F)F.O=C(O)C(F)(F)F` | 20.97% |
| 6 | `Cc1nn(C)c(Cl)c1C1CCCN1CC(=O)N1CCOCC1` (centres unmarked) | -20.38% |
| 7 | `CCOCC1CN(C(=O)c2ccnnc2)Cc2cnn(CC)c21.O=C(O)C(F)(F)F` (centres unmarked) | 3.161% |
| 8 | `CN1CCOC(CNC(=O)CCCOCCc2ccccc2)C1` (centres unmarked) | -14.87% |
| 9 | `COCC(=O)NC1(c2cccc(C(F)(F)F)c2)CCC1` | -39.6% |
| 10 | `CC(C)c1nc(CN(C)C2CCCN(c3cccnn3)C2)no1` (centres unmarked) | -0.9455% |
| 11 | `CC(C)N1CCN(S(=O)(=O)c2ncn(C)c2Cl)CC1` | -32.99% |
| 12 | `COc1cc(CNC(=O)COC2CCCCC2)ccc1O` | 1.031% |
| 13 | `CCN1CC(C(=O)NCCc2csc(-c3ccncc3)n2)CC1=O` (centres unmarked) | 7.091% |
| 14 | `CC1=NOC(C(=O)N(C)CCCn2nc(C)cc2C)C1` (centres unmarked) | -73.47% |
| 15 | `CC(=O)N(C)CC(=O)NC1(c2ccc(Br)cc2)CC1` | -63.64% |
| 16 | `Cc1ccccc1C(NC(=O)CNC(=O)c1ccoc1C)C(C)C` (centres unmarked) | -30.77% |
| 17 | `Cc1cc(CN(C)C2CCCN(c3cccnn3)C2)no1` (centres unmarked) | 5.61% |
| 18 | `CCn1cnnc1CNC(=O)N(C)Cc1ccc2c(c1)OCCO2` | -7.442% |
| 19 | `Cc1ccc(-n2ccnc2)c(C(=O)NCCCN(C)C)c1` | 2.772% |
| 20 | `CC(=O)N1CC(=O)N(c2cnn(C)c2)CC12CCN(Cc1cccs1)C2.O=C(O)C(F)(F)F` (centres unmarked) | -28.16% |
| 21 | `CCCC(C(=O)NCCc1nc(C)cs1)N(C)C` (centres unmarked) | 24.03% |
| 22 | `COc1ccc(NC(=O)c2cccc(CN3CCCC3C)c2)cc1OC` (centres unmarked) | 8.945% |
| 23 | `Cc1cc(C)n(C2CN(Cc3noc(C4CC4)n3)C2)n1` | -50.4% |
| 24 | `CN(C)S(=O)(=O)c1csc(C(=O)N2CCSCC2)c1` | 8.69% |
| 25 | `CNc1ccnc(N(C)Cc2cc(-c3cccs3)n[nH]2)n1` | -7.02% |
| 26 | `CCN(C(=O)NCc1ccccc1OC(F)F)C(C)c1cccnc1` (centres unmarked) | -9.434% |
| 27 | `CCN(C(=O)CSc1ccc(C(F)(F)F)cn1)C1CC1` | -35.22% |
| 28 | `Cl.O=C(NCCO)C1(Cc2ccccc2-c2cccnc2)CCOCC1` | -4.855% |
| 29 | `CC(C)NC(=O)C1CN(C(=O)N2CCCC2)CC12CCOCC2` (centres unmarked) | 9.75% |
| 30 | `CC(C)c1ccc2c(c1)C1(CC(=O)Nc3[nH]ncc31)C(=O)N2C` (centres unmarked) | -30.03% |
| 31 | `CN1CCN(C2CCN(CC(O)c3ccccc3F)CC2)C1=O` (centres unmarked) | -8.162% |
| 32 | `COC(=O)c1ccc(N2CCN(C(=O)c3cccnc3)C(C)C2)cc1` (centres unmarked) | -12.13% |
| 33 | `Cc1nccn1CC1CCCN1S(=O)(=O)Cc1ccc(F)cc1` (centres unmarked) | 0.5156% |
| 34 | `Cc1cc(C)n(CC2CCCN2C(=O)c2cnccn2)n1` (centres unmarked) | -3.127% |
| 35 | `Cn1cccc1C(O)CNS(=O)(=O)Cc1ccccc1` (centres unmarked) | -26.15% |
| 36 | `Cc1ccc(C)c(C(C)NC(=O)N2CCC(n3cncn3)CC2)c1` (centres unmarked) | -1.365% |
| 37 | `CCOc1ccc2oc(-c3cn(C)nc3C)c(O)c(=O)c2c1` | -7.982% |
| 38 | `COCc1ccccc1C(=O)N1CCN(C2=NCC(C)(C)S2)CC1` | 12.61% |
| 39 | `[H][C@]1([C@@]2(C)CC[C@H](O)C(C)(C)O2)CC2(CCN(c3cnccn3)CC2)CO1` | 19.54% |
| 40 | `CCc1nc(CCNC(=O)Nc2ccc(C(=O)NC)cc2C)cs1` | 6.237% |
| 41 | `O=C(O)C(F)(F)F.O=C1CC2(CCCCN2C(=O)c2ccco2)CN1c1cccnc1` (centres unmarked) | -30.4% |
| 42 | `COCCC1COC2(CCN(C(=O)c3cccnc3)CC2)C1.O=C(O)C(F)(F)F` (centres unmarked) | -231.6% |
| 43 | `C[C@@H]1CN(c2ccc(Cl)cn2)C[C@@]1(O)C1CC1` | 17.88% |
| 44 | `CC1CCN(C(=O)c2ccc(N(C)Cc3cnn(C)c3)nc2)CC1` | 8.635% |
| 45 | `O=S(=O)(Nc1cnc(N2CCCC2)nc1)c1ccc(OC(F)(F)F)cc1` | -44.67% |
| 46 | `COC(=O)C(CO)NC(=O)c1cn(Cc2ccccc2F)nn1` (centres unmarked) | -28.13% |
| 47 | `CCS(=O)(=O)c1ncc(CN2CCSCC2)n1CCc1ccccc1` | -39.42% |
| 48 | `[H][C@@]12CN(c3ncc(C)cn3)C[C@@]1([H])N(C)C(=O)CO2` | -51.74% |
| 49 | `O=C(CC1CCCO1)NCCc1ccc(Br)cc1F` (centres unmarked) | -30.33% |
| 50 | `CN(C)C(=O)c1ccccc1NCCCOc1cccc(C#N)c1` | -15.88% |
| 51 | `Cc1oc(-c2ccco2)nc1CC(=O)N1CCC(C(O)C(F)(F)F)CC1` (centres unmarked) | -2.054% |
| 52 | `COc1ccccc1CC(=O)NC(CC(=O)O)c1ccc(F)cc1` (centres unmarked) | -5.23% |
| 53 | `[H][C@@]12CC[C@H](Oc3cccc(F)c3)[C@]1([H])CN(C(=O)c1cccc(C)n1)C2` | 18.27% |
| 54 | `CCCN(C(=O)c1ccncc1)c1nc2c(s1)CCc1c-2cnn1C` | 55.53% |
| 55 | `NCCc1nc(N(Cc2cncs2)C2CC2)c2ccccc2n1` | -25.09% |
| 56 | `Cc1ccc(C2(CN3CCCC3)CCNCC2)nc1` | 2.981% |
| 57 | `[H][C@@]12C[C@@H](Oc3cncnc3)CN1CCN(C(=O)c1ccncc1)C2` | -1.01% |
| 58 | `Cc1n[nH]c(C)c1CCc1n[nH]c(=O)n1Cc1cccs1` | -26.49% |
| 59 | `CCCNC(=O)NC(=O)CN(CC(C)O)c1ccccc1` (centres unmarked) | -6.894% |
| 60 | `CNC(=O)c1cc(C)nc(C2(C)CCCN2c2cc(C)ncn2)n1` (centres unmarked) | -16.82% |
| 61 | `COc1cccc(CCC2CCCN(Cc3ncc[nH]3)C2)c1` (centres unmarked) | -2.301% |
| 62 | `O=C(O)C(F)(F)F.O=C(O)C(F)(F)F.[H][C@@]12CCN(Cc3cccc(C)n3)[C@@]1([H])CCN2C(=O)Cc1cccs1` | 0.6203% |
| 63 | `CCOCC(=O)NCC1CCN(Cc2ccsc2)CC1` | -14.06% |
| 64 | `O=C(O)C(F)(F)F.[H][C@@]12C[C@@H](C(=O)NC)N(C)[C@]1([H])CN(C(=O)c1ccco1)C2` | 32.41% |
| 65 | `Cc1cnc(CN(C)C2CCN(Cc3nccn3C)C2)o1` (centres unmarked) | -4.023% |
| 66 | `Clc1cnccc1N1CCC(OC2CCOCC2)CC1` | -28.3% |
| 67 | `O=C(c1cccs1)N1CCc2c(nc(N3CCCC3)[nH]c2=O)C1` | -8.625% |

Some entries from above, unchanged:

For O=C(O)C(F)(F)F.[H][C@@]12C[C@@H](C(=O)NC)N(C)[C@]1([H])CN(C(=O)c1ccco1)C2 the result was 32.41%.
For Cc1cnc(CN(C)C2CCN(Cc3nccn3C)C2)o1 (centres unmarked) the result was -4.023%.
For Cc1ccc(C)c(C(C)NC(=O)N2CCC(n3cncn3)CC2)c1 (centres unmarked) the result was -1.365%.
For COCCC1COC2(CCN(C(=O)c3cccnc3)CC2)C1.O=C(O)C(F)(F)F (centres unmarked) the result was -231.6%.

From ChEMBL document CHEMBL3988442, “University of Dundee, Small-Polar-MMV Screening Library” (2021).